Reference: the supplement of paper PMC10338343
± gives the standard deviation. Only a part is listed here, and it is no random draw. Many entries were measured with a wide error. The list shows a part of the results.

Assays:
[1] = tested on: MIWI (PIWIL1) piRISC loaded with L1MC piRNA (30 nt); experiment: pre-steady-state target cleavage rate (min^-1); higher = faster piRNA-guided slicing of the target; conditions: guide: L1MC piRNA 5'p-UAACUAAAUACUAUGCAAGCUGUAGGUCCU; auxiliary factor: none (no GTSF1);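 also: 1 nM active piRISC with 0.1 nM target library at 33 °C single turnover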
Outline: (§1)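 A transcribed, DNA-blocked target RNA library […] was incubated at 33 °C for 0–8 or 0–960 min with 1 nM active affinity-purified piRISC carrying one synthetic guide, in HEPES–potassium acetate buffer with or without 500 nM GTSF1 partner protein. Uncleaved targets were then sequenced and normalised to depth and to weakly complementary targets. Data from three trials were pooled, with k3 capped at 0.0001 min^-1, and a burst-and-steady-state fit yielded the pre-steady-state cleavage rate.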

[2] = tested on: EfPiwi piRISC loaded with L1MC piRNA (26 nt); experiment: pre-steady-state target cleavage rate (min^-1); guide: L1MC piRNA 5'p-UAACUAAAUACUAUGCAAGCUGUAGG; MIWI and MILI are mouse PIWI proteins and EfPiwi is from a freshwater sponge; tags in brackets are library labels; higher = faster piRNA-guided slicing of the target
Outline: as §1

[3] = auxiliary factor: 500 nM Ephydatia muelleri Gtsf1
[4] = auxiliary factor: none (no Gtsf1)

Sequence	pre-steady-state target cleavage rate [1]	pre-steady-state target cleavage rate [2, 3]	pre-steady-state target cleavage rate [2, 4]
UCCUGGAUGUCGAAGCAUAGUAUUAAGAUA	0.000377 ± 0.013	0.000738 ± 0.0086	–
UCCUGGAUGUCGUUGCAUAGUAUUUACUAA	0.000589 ± 0.0096	0.000329 ± 0.011	–
UCCUGGAUGUCGAUGCAUAGUAUAUAGUAA	0.00053 ± 0.014	0.00019 ± 0.025	–
UCCUGGAACAGCUUGGUAAGUAUUUAGUUA	0.00172 ± 0.0048	0.00181 ± 0.0057	–
UCCUGGAUGUCGAUGCAUAGUUAUUAGUUA	0.00121 ± 0.0062	0.00078 ± 0.0073	–
UCCUGGAUGAGCUUCCAUAGAAUUUAGUUA	0.000222 ± 0.011	0.000307 ± 0.016	–
UCCUGGAUGUCGUCGCAUAGUAUUUAGUUA	0.0015 ± 0.0044	0.00221 ± 0.0048	–
UCCUGGAUCAGCUUGCAUAGAUAUUUAGUUA	0.00127 ± 0.0043	0.00226 ± 0.0051	–
UCCUGGAACAGGAAGCAUAGUAUUUUCAAA	0.00069 ± 0.0078	0.000288 ± 0.01	–
UCCUGGAUGUCCUUGCAUAGUAUUUUCAAA	0.00102 ± 0.0064	0.00201 ± 0.0042	–
UCCUGGAUGUCCAAGCAUAGUAUUUAGUAA	0.00147 ± 0.0062	0.00145 ± 0.0065	–
UCCUGGAUGUCCUUGCAUAGUAUAUUAGUUA	0.0026 ± 0.0039	0.00281 ± 0.0034	–
UCCUGGAUGUCGAUGACAUAGUAUUUAGUUA	0.000551 ± 0.0098	0.000404 ± 0.0076	–
UCCUGCUACAGCUACCAUAGUAUUUAGUUA	0.002 ± 0.0035	0.00308 ± 0.0021	–
UCCUGGAUCAGGAUGCAUAGUAUUUUCAAA	0.000637 ± 0.0069	0.00047 ± 0.0059	–
UCCUGGAUGUGCUUGGAAAGUAUUUAGUUA	0.00233 ± 0.0033	–	0.000499 ± 0.018
UCCUGGAACAGCUUCGAUAGUAUUUAGUAA	0.00217 ± 0.0037	0.00136 ± 0.0039	–

Sequence	pre-steady-state target cleavage rate [1]	pre-steady-state target cleavage rate [2, 3]	pre-steady-state target cleavage rate [2, 4]
UCCUGGUACAGCUACCAUAGUAUUUAGUAA	0.00121 ± 0.0081	0.00114 ± 0.0042	–
UCCUGGAUCAGCUUCCUUAGUAUUUAGUUA	0.00161 ± 0.0026	0.00181 ± 0.0022	–
UCCUGGAACAGCUUGCACUAGUAUUUAGUUA	0.0021 ± 0.0031	0.00312 ± 0.0026	–
UCCUGGAUGUCGUUCCUUAGUAUUUAGUUA	0.000157 ± 0.032	0.000829 ± 0.0077	–
UCCUGGAUGUCGUUGCAUAGUAUUUAGUCA	0.00273 ± 0.0036	0.00071 ± 0.0056	–
UCCUGGAUGUCGAACGUAUGAUUUUAGUUA	0.000106 ± 0.045	–	0.000122 ± 0.04
UCCUGGAUGUCCUUGCAUAGAAAUUAGUUA	0.0014 ± 0.0041	0.0002 ± 0.019	–
UCCUGGAUGUCGAUAGCAUAGUAUUUAGUUA	0.00119 ± 0.0069	0.00284 ± 0.003	–
UCCUGGAUGUCCUAGCAUAGUAAUUAGUUA	0.00131 ± 0.0054	0.00124 ± 0.0057	–
UCCUGGAUGUCGUUGCAUACUAUUUACUUA	0.000291 ± 0.022	0.000391 ± 0.018	–
UCCUGGAUGUCGAACGUCAGUAUUUAGUUA	0.000136 ± 0.03	< 0.0001	–
UCCUGGAUGUGCUUGCAAUCAUAAAUCAAA [g14:g20:cont:t1A]	0.000214 ± 0.017	0.000185 ± 0.022	–
UCCUGGAUGUCGAAGCAUACUAUUAAGUUA	0.000334 ± 0.018	0.000191 ± 0.016	–
UCCUGGAUGAGCUUGCAUAGUUAUUAGUAA	0.00177 ± 0.0048	0.00327 ± 0.0044	–
UCCUGGUUGUGCUUGCAUAGUAUUUUCAAA	0.00216 ± 0.0048	0.00114 ± 0.0044	–
UCCUGCUACAGCUUGCAUAGUAUUGUAGUUA	0.00257 ± 0.0044	0.00279 ± 0.0016	–

Record cards, as listed above:
UCCUGGAUCAGCUUCCUUAGUAUUUAGUUA is listed as pre-steady-state target cleavage rate [1] = 0.00161 ± 0.0026; pre-steady-state target cleavage rate [2, 3] = 0.00181 ± 0.0022
UCCUGGAUGUCCUUGCAUAGAAAUUAGUUA is listed as pre-steady-state target cleavage rate [1] = 0.0014 ± 0.0041; pre-steady-state target cleavage rate [2, 3] = 0.0002 ± 0.019
